PubChem BioAssay AID1259327 | Drosophila RNAi Screening Center – 2017

- Aim: 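Baseline ATP after transmembrane-protein gene knock-down with water vehicle only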
- System: Drosophila S2R+ cells
- Knock-down reagent: long dsRNA against Drosophila genes
- Timing: 5 days (water added on day 4, read one day later)
- Conditions: water added as vehicle, no metal, one day before read-out
- Measured: 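Luciferase ATP signal per well, normalised to plate mean, duplicate average converted to z-score across plates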
- Direction: ATP z-score: higher = more total ATP than typical wells; ATP luminescence: higher = more total ATP
- Call rule: 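a hit is any knock-down whose absolute ATP z-score is greater than 1.5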
- Meaning of the calls: active = hit: ATP up or down; inactive = no clear ATP change
This is an unselected part of about 3,100 deposited reagents. Of all reagents, 378 (12%) got an active call. 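Hits include both directions; z-score sign shows ATP rise or fall; raw luminescence values are not plate-normalised.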 The numbers tell different reagents against one gene apart. A plus sign joins genes that one reagent is predicted to hit. Reagent sequences are not shown. The record does not give: the amount of reagent.

| gene | reagent no. | ATP z-score, duplicate mean | ATP luminescence, replicate 1 (RLU) | ATP luminescence, replicate 2 (RLU) | Outcome |
| --- | --- | --- | --- | --- | --- |
| MFS1 (Major Facilitator Superfamily Transporter 1) | 1 | -0.727 | 6.71e5 | 6.28e5 | inactive |
| MFS1 (Major Facilitator Superfamily Transporter 1) | 2 | -1.1 | 9.52e5 | 1.04e6 | inactive |
| Nox (NADPH oxidase) | 1 | 0.966 | 6.16e5 | 7.98e5 | inactive |
| Nox (NADPH oxidase) | 2 | 0.677 | 7.31e5 | 9.06e5 | inactive |
| Nox (NADPH oxidase) | 3 | -1.78 | 8.15e5 | 9.25e5 | active |
| Gr59f (Gustatory receptor 59f) | 1 | 0.11 | 7.49e5 | 7.27e5 | inactive |
| Gr59f (Gustatory receptor 59f) | 2 | -0.402 | 8.15e5 | 9.58e5 | inactive |
| OtopLb (Otopetrin-like b) | 1 | -0.579 | 3.78e5 | 5.04e5 | inactive |
| OtopLb (Otopetrin-like b) | 2 | 0.143 | 9.81e5 | 9.98e5 | inactive |
| CG32280 | 1 | 0.00889 | 7.45e5 | 7.42e5 | inactive |
| CG32280 | 2 | -2.36 | 3.49e5 | 4.19e5 | active |
| G6P (Glucose-6-Phosphatase) | 1 | -0.276 | 6.50e5 | 7.04e5 | inactive |
| G6P (Glucose-6-Phosphatase) | 2 | 0.626 | 1.05e6 | 1.19e6 | inactive |
| Flo1 (Flotillin 1) | 1 | 0.177 | 7.49e5 | 7.51e5 | inactive |
| Flo1 (Flotillin 1) | 2 | -1.14 | 1.06e6 | 1.05e6 | inactive |
| SerT (Serotonin transporter) | 1 | 0.267 | 8.47e5 | 6.64e5 | inactive |
| SerT (Serotonin transporter) | 2 | -0.648 | 8.06e5 | 6.89e5 | inactive |
| CG9458 | 1 | 2.06 | 3.96e5 | 9.73e5 | active |
| CG30160 + Tsp42Eb | 1 | 0.215 | 7.19e5 | 8.16e5 | inactive |
| CG30160 + Tsp42Eb | 2 | 1.23 | 8.57e5 | 8.95e5 | inactive |
| CG5421 | 1 | 0.492 | 7.96e5 | 7.61e5 | inactive |
| CG5421 | 2 | 0.592 | 1.05e6 | 7.98e5 | inactive |
| Indy (I'm not dead yet) | 1 | 0.71 | 8.28e5 | 7.85e5 | inactive |
| kon (kon-tiki) | 1 | 0.847 | 4.61e5 | 6.21e5 | inactive |
| kon (kon-tiki) | 2 | -1.1 | 3.69e5 | 4.13e5 | inactive |
| CG13409 | 1 | -0.194 | 2.99e5 | 7.18e5 | inactive |
| CG13409 | 2 | -0.829 | 3.75e5 | 4.44e5 | inactive |
| Or45b (Odorant receptor 45b) | 1 | 0.108 | 6.74e5 | 5.84e5 | inactive |
| Or45b (Odorant receptor 45b) | 2 | 0.15 | 4.97e5 | 4.30e5 | inactive |
| ATP7 | 1 | -1.72 | 4.76e5 | 6.36e5 | active |
| ATP7 | 2 | -0.207 | 4.65e5 | 4.15e5 | inactive |
| Zip48C (Zinc/iron regulated transporter-related protein 48C) | 1 | 0.105 | 7.31e5 | 7.54e5 | inactive |
| Zip48C (Zinc/iron regulated transporter-related protein 48C) | 2 | 0.597 | 5.28e5 | 4.83e5 | inactive |
| Cln3 | 1 | -0.284 | 8.72e5 | 8.46e5 | inactive |
| Cln3 | 2 | 0.204 | 1.11e6 | 1.07e6 | inactive |
| Gr93a (Gustatory receptor 93a) | 1 | -0.285 | 2.73e5 | 7.66e5 | inactive |
| Gr93a (Gustatory receptor 93a) | 2 | 1.44 | 5.54e5 | 5.73e5 | inactive |
| salt (salty dog) | 1 | 0.0387 | 8.84e5 | 7.76e5 | inactive |
| CG32263 | 1 | 0.206 | 8.84e5 | 8.68e5 | inactive |
| CG32263 | 2 | 0.239 | 8.60e5 | 8.43e5 | inactive |

No new results follow: entries from further up.
| gene | reagent no. | ATP z-score, duplicate mean | ATP luminescence, replicate 1 (RLU) | ATP luminescence, replicate 2 (RLU) | Outcome |
| --- | --- | --- | --- | --- | --- |
| MFS1 (Major Facilitator Superfamily Transporter 1) | 1 | -0.727 | 6.71e5 | 6.28e5 | inactive |
| MFS1 (Major Facilitator Superfamily Transporter 1) | 2 | -1.1 | 9.52e5 | 1.04e6 | inactive |
| Nox (NADPH oxidase) | 1 | 0.966 | 6.16e5 | 7.98e5 | inactive |
| Nox (NADPH oxidase) | 2 | 0.677 | 7.31e5 | 9.06e5 | inactive |
| Nox (NADPH oxidase) | 3 | -1.78 | 8.15e5 | 9.25e5 | active |
| Gr59f (Gustatory receptor 59f) | 1 | 0.11 | 7.49e5 | 7.27e5 | inactive |
| Gr59f (Gustatory receptor 59f) | 2 | -0.402 | 8.15e5 | 9.58e5 | inactive |
| OtopLb (Otopetrin-like b) | 1 | -0.579 | 3.78e5 | 5.04e5 | inactive |

Additional reagents follow:
| gene | reagent no. | ATP z-score, duplicate mean | ATP luminescence, replicate 1 (RLU) | ATP luminescence, replicate 2 (RLU) | Outcome |
| --- | --- | --- | --- | --- | --- |
| CG11961 | 1 | 0.576 | 7.91e5 | 7.95e5 | inactive |
| CG11961 | 2 | -0.476 | 4.56e5 | 3.89e5 | inactive |
| Sply (Sphingosine-1-phosphate lyase) | 1 | -1.52 | 5.31e5 | 5.97e5 | active |
| Sply (Sphingosine-1-phosphate lyase) | 2 | -0.824 | 9.12e5 | 9.52e5 | inactive |
| CG15923 | 1 | -0.349 | 7.08e5 | 6.32e5 | inactive |
| CG5021 | 1 | 2.02 | 1.11e6 | 1.21e6 | active |
| CG5021 | 2 | 0.645 | 4.74e5 | 5.46e5 | inactive |
| CG5262 | 1 | 0.652 | 8.48e5 | 7.52e5 | inactive |
| CG5262 | 2 | -0.729 | 4.16e5 | 3.94e5 | inactive |
| CG4645 | 1 | -0.847 | 6.10e5 | 6.26e5 | inactive |
| CG4645 | 2 | -1.81 | 6.33e5 | 6.17e5 | active |
| CG3603 | 1 | -1.39 | 5.53e5 | 7.03e5 | inactive |
| CG3603 | 2 | -0.245 | 4.36e5 | 4.89e5 | inactive |
| crq (croquemort) | 1 | -0.0533 | 7.10e5 | 6.90e5 | inactive |
| mol (moladietz) | 1 | 0.161 | 6.86e5 | 8.39e5 | inactive |
| mol (moladietz) | 2 | -0.673 | 7.00e5 | 8.34e5 | inactive |
| CG10702 | 1 | 0.581 | 5.22e5 | 5.17e5 | inactive |
| CG10702 | 2 | -1.17 | 4.80e5 | 4.81e5 | inactive |
| CG10702 | 3 | -1.2 | 4.48e5 | 5.09e5 | inactive |
| CG6293 | 1 | 1.33 | 8.90e5 | 7.97e5 | inactive |
| CG6293 | 2 | 1.26 | 1.13e6 | 8.30e5 | inactive |
| rho-4 (rhomboid-4) | 1 | -0.506 | 6.58e5 | 6.49e5 | inactive |
| rho-4 (rhomboid-4) | 2 | 2.38 | 8.13e5 | 7.27e5 | active |
| CG12773 | 1 | 0.29 | 7.86e5 | 6.87e5 | inactive |
| CG12773 | 2 | -0.114 | 8.52e5 | 1.01e6 | inactive |
| CG1494 | 1 | 1.69 | 9.68e5 | 8.80e5 | active |
| CG13579 | 1 | -1.62 | 5.50e5 | 5.58e5 | active |
| CG13579 | 2 | 0.453 | 9.64e5 | 1.07e6 | inactive |
